The source of these data is patent US20120225141A1.

No constants are given. Whether binding was seen depends on the method and setting. In cells and extracts the contact can be indirect. Some binding calls cover weakened binding; strength is not graded here. Tags and fused reporters may be left off the sequences shown.

Assay [1] concerns the target T1, mature murine LOX (LOX 27H), from construct pcLOX27-V5His (murine) (UniProt P28301).
T1 sequence (looked up): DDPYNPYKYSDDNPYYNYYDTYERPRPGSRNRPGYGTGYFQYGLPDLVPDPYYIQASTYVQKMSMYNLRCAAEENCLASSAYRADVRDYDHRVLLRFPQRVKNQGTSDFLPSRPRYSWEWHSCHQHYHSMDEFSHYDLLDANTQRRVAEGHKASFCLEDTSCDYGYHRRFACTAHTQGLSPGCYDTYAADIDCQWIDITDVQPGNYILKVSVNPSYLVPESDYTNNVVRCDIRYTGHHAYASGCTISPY
Briefly: co-immunoprecipitation (anti-V5 or anti-HA) from co-transfected Cos 7 cell lysates, Western blot.

Assay [2] addresses T2, mature human LOX (LOX 36H), from construct pcLOX36-V5His (human) (UniProt P28300).
T2 sequence: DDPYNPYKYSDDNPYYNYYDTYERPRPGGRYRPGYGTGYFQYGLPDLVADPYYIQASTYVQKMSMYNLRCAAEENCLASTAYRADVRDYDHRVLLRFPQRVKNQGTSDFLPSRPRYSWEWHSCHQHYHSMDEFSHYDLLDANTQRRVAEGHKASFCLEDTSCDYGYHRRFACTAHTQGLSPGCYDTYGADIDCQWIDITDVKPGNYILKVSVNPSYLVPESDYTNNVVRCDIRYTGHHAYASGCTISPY
Described as above.

B1: complete form of NRAGE (NM3-HA), from construct pNM3-HA (protein, not shown: small tags and cut ends)
chain: MAQKMDCGAGLLGFQAEASVEDSALLMQTLMEAIQISEAPPTNQATAAASPQSSQPPTANEMADIQVSAAAARPKSAFKVQNATTKGPNGVYDFSQAHNAKDVPNTQPKAAFKSQNATSKGPNAAYDFSQAATTGELAANKSEMAFKAQNATTKVGPNATYNFSQSLNANDLANSRPKTPFKAWNDTTKAPTADTQTQNVNQAKMATSQADIETDPGISEPDGATAQTSADGSQAQNLESRTIIRGKRTRKINNLNVEENSSGDQRRAPLAAGTWRSAPVPVTTQNPPGAPPNVLWQTPLAWQNPSGWQNQTARQTPPARQSPPARQTPPAWQNPVAWQNPVIWPNPVIWQNPVIWPNPIVWPGPVVWPNPLAWQNPPGWQTPPGWQTPPGWQGPPDWQGPPDWPLPPDWPLPPDWPLPTDWPLPPDWIPADWPIPPDWQNLRPSPNLRPSPNSRASQNPGAAQPRDVALLQERANKLVKYLMLKDYTKVPIKRSEMLRDIIREYTDVYPEIIERACFVLEKKFGIQLKEIDKEEHLYILISTPESLAGILGTTKDTPKLGLLLVILGVIFMNGNRASEAVLWEALRKMGLRPGVRHPLLGDLRKLLTYEFVKQKYLDYRRVPNSNPPEYEFLWGLRSYHETSKMKVLRFIAEVQKRDPRDWTAQFMEAADEALDALDAAAAEAEARAEARTRMGIGDEAVSGPWSWDDIEFELLTWDEEGDFGDPWSRIPFTFWARYHQNARSRFPQTFAGPIIGPGGTASANFAANFGAIGFFWVE
For the molecule B1, the binding entry in assay [1] and in assay [2] was “binds” in each case.

B2: NRAGE (NM7-HA), which corresponds to the IRD region, from construct pNM7-HA (protein, not shown: small tags and cut ends)
chain: WQTPLAWQNPSGWQNQTARQTPPARQSPPARQTPPAWQNPVAWQNPVIWPNPVIWQNPVIWPNPIVWPGPVVWPNPLAWQNPPGWQTPPGWQTPPGWQGPPDWQGPPDWPLPPDWPLPPDWPLPTDWPLPPDWIPADWPIPPDWQNLRP
As for B2, the binding result in assay [1] and in assay [2] was “binds” throughout.
